For 1 molecule, binding results are on record in article PMC12663635.

The assay addresses T1, full-length PC2 fused with FLAG-BirA* (PC2-BF / FB-PC2 BioID baits, datasets merged) (human) (UniProt Q13563).
T1 sequence: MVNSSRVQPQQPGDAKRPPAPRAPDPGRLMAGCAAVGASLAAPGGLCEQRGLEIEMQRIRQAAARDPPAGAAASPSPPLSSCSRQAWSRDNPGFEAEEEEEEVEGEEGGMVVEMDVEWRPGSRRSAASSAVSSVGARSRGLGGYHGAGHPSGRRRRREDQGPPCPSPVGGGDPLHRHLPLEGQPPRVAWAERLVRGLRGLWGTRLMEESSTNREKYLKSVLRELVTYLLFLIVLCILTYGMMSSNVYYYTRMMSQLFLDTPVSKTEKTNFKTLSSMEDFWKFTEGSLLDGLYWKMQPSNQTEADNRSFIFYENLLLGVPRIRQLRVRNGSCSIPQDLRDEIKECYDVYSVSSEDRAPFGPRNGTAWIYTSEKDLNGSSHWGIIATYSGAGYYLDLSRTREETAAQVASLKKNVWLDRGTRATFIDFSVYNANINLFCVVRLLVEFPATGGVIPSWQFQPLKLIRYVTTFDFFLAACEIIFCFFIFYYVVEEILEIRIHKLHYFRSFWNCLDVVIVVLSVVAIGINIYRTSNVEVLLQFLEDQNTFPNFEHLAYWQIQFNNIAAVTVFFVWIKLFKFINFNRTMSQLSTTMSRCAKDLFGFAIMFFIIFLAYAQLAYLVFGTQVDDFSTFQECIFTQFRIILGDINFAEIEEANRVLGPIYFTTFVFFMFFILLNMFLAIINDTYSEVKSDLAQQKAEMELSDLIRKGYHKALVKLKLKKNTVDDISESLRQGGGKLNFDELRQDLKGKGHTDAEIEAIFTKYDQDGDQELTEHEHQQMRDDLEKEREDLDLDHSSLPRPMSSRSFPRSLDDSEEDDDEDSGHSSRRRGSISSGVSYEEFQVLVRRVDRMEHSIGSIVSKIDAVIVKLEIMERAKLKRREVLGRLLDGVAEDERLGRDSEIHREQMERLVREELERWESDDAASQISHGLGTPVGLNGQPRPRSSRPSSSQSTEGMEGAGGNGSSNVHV
Nature of the assay: proximity labelling; BioID in Flp-In HEK293 T-REx stable lines: bait induced with 1 ug/ml tetracycline and 50 uM biotin for 24 h, cycling cells or cells kept 48 h in 0.5% serum (ciliation-induced); streptavidin capture, LC-MS/MS; SAINTexpress, BFDR <=1% against FlagBirA* controls, PC1-BF also filtered against CD16.7-BF.

These are yes or no findings as the source states them, for the method shown. In cells and extracts the contact can be indirect. Here binding means that the protein was enriched with, or labelled near, the bait; the list need not be complete. A no says only that the protein was not detected with the bait. Where a sequence is shown, tags or fusion partners need not be part of it.

B1: FNIP1 (protein, UniProt Q8TF40 1-1166)
chain: MAPTLFQKLFSKRTGLGAPGRDARDPDCGFSWPLPEFDPSQIRLIVYQDCERRGRNVLFDSSVKRRNEDISVSKLGSDAQVKVFGKCCQLKPGGDSSSSLDSSVTSSSDIKDQCLKYQGSRCSSDANMLGEMMFGSVAMSYKGSTLKIHQIRSPPQLMLSKVFTARTGSSICGSLNTLQDSLEFINQDNNTLKADNNTVINGLLGNIGLSQFCSPRRAFSEQGPLRLIRSASFFAVHSNPMDMPGRELNEDRDSGIARSASLSSLLITPFPSPNSSLTRSCASSYQRRWRRSQTTSLENGVFPRWSIEESFNLSDESCGPNPGIVRKKKIAIGVIFSLSKDEDENNKFNEFFFSHFPLFESHMNKLKSAIEQAMKMSRRSADASQRSLAYNRIVDALNEFRTTICNLYTMPRIGEPVWLTMMSGTPEKNHLCYRFMKEFTFLMENASKNQFLPALITAVLTNHLAWVPTVMPNGQPPIKIFLEKHSSQSVDMLAKTHPYNPLWAQLGDLYGAIGSPVRLARTVVVGKRQDMVQRLLYFLTYFIRCSELQETHLLENGEDEAIVMPGTVITTTLEKGEIEESEYVLVTMHRNKSSLLFKESEEIRTPNCNCKYCSHPLLGQNVENISQQEREDIQNSSKELLGISDECQMISPSDCQEENAVDVKQYRDKLRTCFDAKLETVVCTGSVPVDKCALSESGLESTEETWQSEKLLDSDSHTGKAMRSTGMVVEKKPPDKIVPASFSCEAAQTKVTFLIGDSMSPDSDTELRSQAVVDQITRHHTKPLKEERGAIDQHQETKQTTKDQSGESDTQNMVSEEPCELPCWNHSDPESMSLFDEYFNDDSIETRTIDDVPFKTSTDSKDHCCMLEFSKILCTKNNKQNNEFCKCIETVPQDSCKTCFPQQDQRDTLSILVPHGDKESSDKKIAVGTEWDIPRNESSDSALGDSESEDTGHDMTRQVSSYYGGEQEDWAEEDEIPFPGSKLIEVSAVQPNIANFGRSLLGGYCSSYVPDFVLQGIGSDERFRQCLMSDLSHAVQHPVLDEPIAEAVCIIADMDKWTVQVASSQRRVTDNKLGKEVLVSSLVSNLLHSTLQLYKHNLSPNFCVMHLEDRLQELYFKSKMLSEYLRGQMRVHVKELGVVLGIESSDLPLLAAVASTHSPYVAQILL
As for B1, the binding entry was “no binding”.
